Assay results as given in PubChem BioAssay AID1347131 (National Center for Advancing Translational Sciences (NCATS), 2019).
The whole screen tested about 410,000 compounds, of which about 2,000 (0.49%) were called active. The inconclusive results got no clear call from the source; some entries with a clear call stand among them for comparison. Calls come from the whole dose curve; tested in HEK293 reporter line. Potencies beside an inconclusive call are fits to weak or partial responses and may not hold up.

Assay: qHTS Assay for Foot and Mouth Disease Virus Antivirals: Primary Screen against the MLPCN compound library; note: nearly all actives have a fitted effect of over 55% in size
Settings: FMDV antiviral cell-based qHTS; activity, negative = inhibition: at 57.9 µM (top of the series)
Potency is the fitted concentration of half-maximal effect.

Compound | Potency | activity, negative = inhibition
CC(=O)n1cc(N(C(=O)CCl)c2ccc(C)cc2)c2ccccc21 | inconclusive: 14.1 µM [inhibitor, partial curve, poor fit] | 
COc1ccc(-c2csc(NC(=O)c3c(C)noc3C)n2)cc1F | inconclusive: 39.8 µM [inhibitor, single point] | 
COc1ccccc1OCC(=O)c1[nH]c(C)c(C(C)=O)c1C | inconclusive: 20 µM [inhibitor, partial curve, poor fit] | 
CCN1CCc2c(sc(NC(=O)c3ccc(S(=O)(=O)N(CC)c4ccccc4)cc3)c2C(N)=O)C1 | inconclusive: 25.1 µM [inhibitor, partial curve, poor fit] | 
CCCOC(=O)c1cccc(NC(=O)COc2ccc([N+](=O)[O-])cc2)c1 | inconclusive: 25.1 µM [inhibitor, partial curve, poor fit] | 
O=C(c1ccco1)N1N=C(c2cccs2)CC1c1ccccc1O (stereo not drawn) | inactive | 
CCc1ccc(-c2ccc(SCC(=O)Nc3nnc(C)s3)nn2)cc1 | inconclusive: 39.8 µM [inhibitor, single point] | 
c1ccc(-c2cn3c(n2)-c2ccccc2C3)cc1 | active: 7.94 µM | 
CC(=O)OC1CC2C(C)(C)C(O)CC[C@@]2(C)C2CC[C@@]3(C)C(c4ccoc4)OC(=O)C4OC43[C@]12C (stereo partly drawn) | inactive | 
CCn1cc(C(=O)OCC(=O)OC2CC(C)CCC2C(C)C)c(=O)c2ccc(C)nc21 (stereo not drawn) | active: 22.4 µM | 
Cc1cccc(-c2nnc(-c3ccc4ccccc4c3)o2)c1 | inconclusive: 39.8 µM [inhibitor, single point] | 
CCC(Sc1nc2cc(OC)c(OC)cc2c(=O)n1CCc1ccc(OC)c(OC)c1)C(=O)NCCOC (stereo not drawn) | inconclusive: 12.6 µM [inhibitor, partial curve] | 
CCn1c(SCc2ccc(C)cc2)nnc1C1CCN(S(=O)(=O)c2ccc(OC)cc2)CC1 | inconclusive: 14.1 µM [inhibitor, partial curve] | 
COC(=O)c1c(NC(=O)CCCOc2ccc(C(C)(C)C)cc2)sc2c1C(C(=O)OC)CC2 (stereo not drawn) | inconclusive: 35.5 µM [inhibitor, partial curve, poor fit] | 
OCCN(CCO)c1ccc(C(c2ccccc2Cl)c2ccc(N(CCO)CCO)cc2Cl)c(Cl)c1 | inconclusive: 39.8 µM [inhibitor, partial curve, poor fit] | 
Cc1ccccc1-n1c(O)c(/C=C2/C(c3ccccc3)=Nc3ccccc32)c(=O)[nH]c1=O | inconclusive: 22.4 µM [inhibitor, partial curve, poor fit] | 
Cc1c([C@@H]2C[C@H]3CN(Cc4cccc(Cl)c4)C(=O)[C@]34CCCN24)cnn1C | inconclusive: 12.6 µM [inhibitor, partial curve] | 
CCCCCN1C(=O)c2cc(OC)ccc2[C@@]2(C(=O)OCC)Cc3cc(Cl)ccc3[C@@H]12 | inconclusive: 7.94 µM [inhibitor, full curve, poor fit] | 
COc1ccc(OCC(=O)N2CCC(c3nc4ccccc4s3)CC2)cc1 | inconclusive: 14.1 µM [inhibitor, single point] | 
O=C(N1CCOCC1)C1(c2ccc(Cl)cc2)CCCC1 | inconclusive: 3.55 µM [inhibitor, full curve] | 

Compound | Potency | activity, negative = inhibition
CCN(CC)C(=O)C1CCCN(c2ncnc3c2cnn3-c2cccc(C)c2)C1 (stereo not drawn) | inconclusive: 14.1 µM [inhibitor, partial curve, poor fit] | 
COc1ccc(C(=O)O/N=C(\C)c2ccccc2)cc1 | inconclusive: 39.8 µM [inhibitor, single point] | 
C=CCn1c(SCC(=O)Nc2cccnc2Cl)nnc1-c1ccccc1F | inactive | 
CN(C(=O)c1ccc(-c2nn(C)c(=O)c3ccccc23)cc1)C1CCCCC1 | inconclusive: 22.4 µM [inhibitor, partial curve, poor fit] | 
COc1cccc(/C=C2\CCc3ccccc3C2=O)c1 | inconclusive: 15.8 µM [inhibitor, single point] | 
C/C(N)=C(/C#N)C(=O)CSc1nc2scc(-c3ccc(F)cc3)c2c(=O)n1C | inactive | 
COc1cc(/C=C(/C(=O)c2cccs2)c2nc3ccccc3[nH]2)cc(OC)c1O | inconclusive: 14.1 µM [inhibitor, partial curve, poor fit] | 
CC(=O)c1ccccc1OCC(O)CN1CCN(CCN2C(=O)c3cccc4cccc(c34)C2=O)CC1 (stereo not drawn) | inconclusive: 28.2 µM [inhibitor, partial curve, poor fit] | 
O=C(/C=C/c1ccc(Br)cc1)NC(=O)c1ccccc1O | inconclusive: 17.8 µM [inhibitor, single point] | 
CCc1ccc(NC(=O)C2CCCN(c3nn4cc(-c5ccc(OC)cc5)nc4s3)C2)cc1 (stereo not drawn) | inconclusive: 11.2 µM [inhibitor, partial curve, poor fit] | 
COc1ccc(CCNc2cc(N3CCN(C(=O)c4ccccc4OC)CC3)ccc2[N+](=O)[O-])cc1OC | inconclusive: 8.91 µM [inhibitor, full curve, poor fit] | 
Cc1ccc2nc(-c3cccc(-c4cccc(Cl)c4)c3)c(NCc3ccccc3)n2c1 | inconclusive: 35.5 µM [inhibitor, partial curve, poor fit] | 
CCN(CC)S(=O)(=O)c1cc(NC(=O)CCCOc2ccc(C(C)=O)cc2)ccc1C | inconclusive: 15.8 µM [inhibitor, partial curve, poor fit] | 
CCOC(=O)c1nnc(-c2ccccc2)nc1Oc1ccc(Cl)cc1 | inconclusive: 15.8 µM [inhibitor, partial curve, poor fit] | 
CC1=C(/C=C/C(C)=C/C=C/C(C)=C/C=C/C=C(C)/C=C/C=C(C)/C=C/C2=C(C)CCCC2(C)C)C(C)(C)CCC1 | inconclusive: 5.01 µM [inhibitor, partial curve, poor fit] | 
COc1cc(/C=C(/C#N)c2nc3ccccc3[nH]2)ccc1OCC(=O)Nc1ccccc1C | inactive | 
COC(=O)c1ccc(/C=N/N2CCN(Cc3ccccc3Cl)CC2)cc1 | inconclusive: 8.91 µM [inhibitor, partial curve] | 
O=C(OCC(=O)N1CCN(C(=O)c2ccco2)CC1)c1cc(-c2ccccc2)nc2ccccc12 |  | inconclusive: -30.2% [inhibitor]
O=C(CNc1cccc2ccccc12)N/N=C/c1ccc[nH]1 | inconclusive: 7.94 µM [inhibitor, full curve] | 
CC(C)[C@H](NC(=O)c1ccc(Cl)cc1)C(=O)Nc1cccc(S(=O)(=O)N2CCOCC2)c1 | inconclusive: 0.708 µM [inhibitor, full curve] | 

2 consecutive entries already listed, for reference:
Compound | Potency | activity, negative = inhibition
COc1cc(/C=C(/C(=O)c2cccs2)c2nc3ccccc3[nH]2)cc(OC)c1O | inconclusive: 14.1 µM [inhibitor, partial curve, poor fit] | 
CC(=O)c1ccccc1OCC(O)CN1CCN(CCN2C(=O)c3cccc4cccc(c34)C2=O)CC1 (stereo not drawn) | inconclusive: 28.2 µM [inhibitor, partial curve, poor fit] | 

Remaining list, next part.

Compound | Potency | activity, negative = inhibition
Nc1nonc1-n1nnc(C(=O)N/N=C/c2ccc(O)cc2)c1COc1ccc(F)cc1 | inactive | 
COc1ccc2[nH]c3c(N4CCc5ccccc5C4)ncnc3c2c1 | inconclusive: 25.1 µM [inhibitor, partial curve, poor fit] | 
O=C(O)c1ccc(NC2=C(Cl)C(=O)c3ccccc3C2=O)cc1 | inconclusive: 25.1 µM [inhibitor, partial curve, poor fit] | 
CCOC(=O)c1c(C)oc2c(F)c(F)c(F)c(F)c2c1=O | inconclusive: 11.2 µM [inhibitor, partial curve, poor fit] | 
COc1ccc(C(=O)C2CCCN(Cc3cccn3-c3ccc(Cl)cn3)C2)c(OC)c1 (stereo not drawn) | inconclusive: 20 µM [inhibitor, partial curve, poor fit] | 
O=C(C1CCN(S(=O)(=O)c2ccc(-n3cnnn3)cc2)CC1)N1CCCCC1 | inconclusive: 2.82 µM [inhibitor, partial curve, poor fit] | 
CN(Cc1cn(C)nc1-c1ccc(Oc2ccccc2)cc1)Cc1cnc2ccccn12 | inconclusive: 11.2 µM [inhibitor, partial curve, poor fit] | 
COc1ccc(C)cc1NC(=O)C1CCN(S(=O)(=O)c2ccccc2)CC1 | inactive | 
Cc1c(C(=O)NC2CCCc3ccccc32)oc2ccc(S(=O)(=O)N3CCOCC3)cc12 (stereo not drawn) | inconclusive: 15.8 µM [inhibitor, partial curve, poor fit] | 
Cn1cnc([N+](=O)[O-])c1S(=O)(=O)Oc1ccccc1 | inconclusive: 25.1 µM [inhibitor, partial curve, poor fit] | 
c1ccc(-c2nnc(NC3=NCCC3)o2)cc1 | inconclusive: 17.8 µM [inhibitor, single point] | 
Cc1ccc(-n2c(=O)cc(N3CCN(c4ccccc4Cl)CC3)[nH]c2=O)cc1 | inconclusive: 31.6 µM [inhibitor, partial curve, poor fit] | 
O=C(O)c1cccc(N/N=C/c2ccc(F)c(F)c2)c1 | inconclusive: 10 µM [inhibitor, single point] | 
O=C(c1ccco1)N1CCN(C(=O)c2cnn3c2NC(c2cccs2)CC3C(F)(F)F)CC1 (stereo not drawn) | inconclusive: 28.2 µM [inhibitor, partial curve, poor fit] | 
CCCCn1c(N)c(N(CCC(C)C)C(=O)c2ccc3c(c2)OCO3)c(=O)[nH]c1=O | inactive | 
COc1ccc([C@H]2CC(=O)C=C(c3cccc(C(C)C)c3)C2)cc1OC | inconclusive: 25.1 µM [inhibitor, partial curve, poor fit] | 
CC(C)(C)n1nnnc1C(CCc1ccccc1)N1CCC(n2c(=O)[nH]c3ccccc32)CC1 (stereo not drawn) | inconclusive: 31.6 µM [inhibitor, partial curve, poor fit] | 
O=c1[nH]c(=O)n(-c2ccc(F)cc2)c2c1C(C(F)(F)F)(C(F)(F)F)N=C(c1ccc(F)cc1)N2 | inconclusive: 10 µM [inhibitor, full curve, poor fit] | 

Reprinted at random: 2 records from the list.
Compound | Potency | activity, negative = inhibition
Cn1cnc([N+](=O)[O-])c1S(=O)(=O)Oc1ccccc1 | inconclusive: 25.1 µM [inhibitor, partial curve, poor fit] | 
O=c1[nH]c(=O)n(-c2ccc(F)cc2)c2c1C(C(F)(F)F)(C(F)(F)F)N=C(c1ccc(F)cc1)N2 | inconclusive: 10 µM [inhibitor, full curve, poor fit] | 
